Literature values as cited in patent publication US9157079B2, “Solid matrix for the storage of biological samples” (GE HEALTHCARE UK LIMITED, priority 2013, dated 2015).
Some entries share one result that the patent states for a list of compounds.

Test system: E. coli
Conditions: each chemical alone, at low concentrations, in solution

| Molecule | intracellular protein extracted [%] |
| --- | --- |
| N=C(N)N [guanidine] | ≤ 10 |
| Triton X-100 | ≤ 10 |
